# The list shows a part of the results, in another mix than the full data.
# By UniProt entry, the sequences of proteins in these tests, tags left out. Where a name states a change or a piece, a line headed by the entry shows the natural chain unless it says otherwise.
# UniProt P31270: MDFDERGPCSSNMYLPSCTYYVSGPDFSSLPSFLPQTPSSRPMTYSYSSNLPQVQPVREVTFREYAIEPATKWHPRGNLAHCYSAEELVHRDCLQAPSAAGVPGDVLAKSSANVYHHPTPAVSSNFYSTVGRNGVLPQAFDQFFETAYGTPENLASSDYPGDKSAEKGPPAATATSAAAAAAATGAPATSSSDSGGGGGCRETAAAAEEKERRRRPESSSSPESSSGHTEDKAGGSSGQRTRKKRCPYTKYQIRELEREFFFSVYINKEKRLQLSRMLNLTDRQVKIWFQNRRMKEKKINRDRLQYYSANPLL
# UniProt P33981: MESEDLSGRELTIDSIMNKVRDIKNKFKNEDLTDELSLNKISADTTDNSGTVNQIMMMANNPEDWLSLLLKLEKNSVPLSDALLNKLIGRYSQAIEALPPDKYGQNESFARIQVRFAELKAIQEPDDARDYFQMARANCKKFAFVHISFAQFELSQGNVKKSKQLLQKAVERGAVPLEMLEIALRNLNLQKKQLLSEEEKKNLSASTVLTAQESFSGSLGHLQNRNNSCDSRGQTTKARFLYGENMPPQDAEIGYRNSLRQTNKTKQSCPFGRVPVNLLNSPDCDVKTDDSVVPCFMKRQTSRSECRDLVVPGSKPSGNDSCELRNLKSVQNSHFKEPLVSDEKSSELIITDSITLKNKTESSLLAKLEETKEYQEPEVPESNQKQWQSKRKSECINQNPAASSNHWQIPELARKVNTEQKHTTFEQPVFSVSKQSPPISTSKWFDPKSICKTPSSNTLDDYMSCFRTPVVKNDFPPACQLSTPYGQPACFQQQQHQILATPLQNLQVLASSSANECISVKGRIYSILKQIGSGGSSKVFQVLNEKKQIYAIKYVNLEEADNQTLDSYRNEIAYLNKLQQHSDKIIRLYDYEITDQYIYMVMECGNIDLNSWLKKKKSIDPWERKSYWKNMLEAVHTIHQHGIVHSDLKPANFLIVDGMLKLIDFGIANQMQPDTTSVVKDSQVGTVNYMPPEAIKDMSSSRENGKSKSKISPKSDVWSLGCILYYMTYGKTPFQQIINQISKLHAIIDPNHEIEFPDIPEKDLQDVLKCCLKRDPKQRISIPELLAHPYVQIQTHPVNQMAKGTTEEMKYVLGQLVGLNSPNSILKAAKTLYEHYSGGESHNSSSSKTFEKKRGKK
# UniProt P30154, whole entry: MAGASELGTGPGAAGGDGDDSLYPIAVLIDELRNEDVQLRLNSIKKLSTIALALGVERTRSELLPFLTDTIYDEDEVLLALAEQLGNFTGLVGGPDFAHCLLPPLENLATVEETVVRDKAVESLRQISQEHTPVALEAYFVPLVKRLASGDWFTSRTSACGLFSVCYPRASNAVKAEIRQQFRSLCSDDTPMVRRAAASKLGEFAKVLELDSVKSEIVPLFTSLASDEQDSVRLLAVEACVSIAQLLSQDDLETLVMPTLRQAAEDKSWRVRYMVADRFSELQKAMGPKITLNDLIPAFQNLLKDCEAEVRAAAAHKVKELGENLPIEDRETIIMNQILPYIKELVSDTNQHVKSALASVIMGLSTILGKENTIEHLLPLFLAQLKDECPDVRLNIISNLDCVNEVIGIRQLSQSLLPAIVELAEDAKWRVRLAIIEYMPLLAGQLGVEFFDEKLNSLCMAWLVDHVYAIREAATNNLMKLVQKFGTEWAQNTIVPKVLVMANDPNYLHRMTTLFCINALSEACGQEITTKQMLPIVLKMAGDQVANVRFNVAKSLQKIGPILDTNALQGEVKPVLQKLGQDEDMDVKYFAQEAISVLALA
# UniProt P40227, whole entry, looked up: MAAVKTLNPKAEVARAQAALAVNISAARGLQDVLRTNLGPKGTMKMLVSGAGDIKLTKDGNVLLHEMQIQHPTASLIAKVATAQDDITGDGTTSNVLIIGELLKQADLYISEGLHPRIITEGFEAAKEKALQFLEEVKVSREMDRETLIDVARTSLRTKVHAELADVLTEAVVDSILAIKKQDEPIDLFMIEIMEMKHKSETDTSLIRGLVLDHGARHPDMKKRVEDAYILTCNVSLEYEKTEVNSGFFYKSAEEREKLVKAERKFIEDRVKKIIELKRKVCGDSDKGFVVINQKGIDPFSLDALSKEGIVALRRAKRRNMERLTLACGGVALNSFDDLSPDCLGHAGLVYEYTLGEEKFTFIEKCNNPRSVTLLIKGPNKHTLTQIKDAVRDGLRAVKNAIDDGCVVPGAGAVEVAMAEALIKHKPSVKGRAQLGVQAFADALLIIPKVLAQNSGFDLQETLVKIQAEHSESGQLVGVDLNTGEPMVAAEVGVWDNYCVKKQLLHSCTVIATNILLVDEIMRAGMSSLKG
# UniProt P41252: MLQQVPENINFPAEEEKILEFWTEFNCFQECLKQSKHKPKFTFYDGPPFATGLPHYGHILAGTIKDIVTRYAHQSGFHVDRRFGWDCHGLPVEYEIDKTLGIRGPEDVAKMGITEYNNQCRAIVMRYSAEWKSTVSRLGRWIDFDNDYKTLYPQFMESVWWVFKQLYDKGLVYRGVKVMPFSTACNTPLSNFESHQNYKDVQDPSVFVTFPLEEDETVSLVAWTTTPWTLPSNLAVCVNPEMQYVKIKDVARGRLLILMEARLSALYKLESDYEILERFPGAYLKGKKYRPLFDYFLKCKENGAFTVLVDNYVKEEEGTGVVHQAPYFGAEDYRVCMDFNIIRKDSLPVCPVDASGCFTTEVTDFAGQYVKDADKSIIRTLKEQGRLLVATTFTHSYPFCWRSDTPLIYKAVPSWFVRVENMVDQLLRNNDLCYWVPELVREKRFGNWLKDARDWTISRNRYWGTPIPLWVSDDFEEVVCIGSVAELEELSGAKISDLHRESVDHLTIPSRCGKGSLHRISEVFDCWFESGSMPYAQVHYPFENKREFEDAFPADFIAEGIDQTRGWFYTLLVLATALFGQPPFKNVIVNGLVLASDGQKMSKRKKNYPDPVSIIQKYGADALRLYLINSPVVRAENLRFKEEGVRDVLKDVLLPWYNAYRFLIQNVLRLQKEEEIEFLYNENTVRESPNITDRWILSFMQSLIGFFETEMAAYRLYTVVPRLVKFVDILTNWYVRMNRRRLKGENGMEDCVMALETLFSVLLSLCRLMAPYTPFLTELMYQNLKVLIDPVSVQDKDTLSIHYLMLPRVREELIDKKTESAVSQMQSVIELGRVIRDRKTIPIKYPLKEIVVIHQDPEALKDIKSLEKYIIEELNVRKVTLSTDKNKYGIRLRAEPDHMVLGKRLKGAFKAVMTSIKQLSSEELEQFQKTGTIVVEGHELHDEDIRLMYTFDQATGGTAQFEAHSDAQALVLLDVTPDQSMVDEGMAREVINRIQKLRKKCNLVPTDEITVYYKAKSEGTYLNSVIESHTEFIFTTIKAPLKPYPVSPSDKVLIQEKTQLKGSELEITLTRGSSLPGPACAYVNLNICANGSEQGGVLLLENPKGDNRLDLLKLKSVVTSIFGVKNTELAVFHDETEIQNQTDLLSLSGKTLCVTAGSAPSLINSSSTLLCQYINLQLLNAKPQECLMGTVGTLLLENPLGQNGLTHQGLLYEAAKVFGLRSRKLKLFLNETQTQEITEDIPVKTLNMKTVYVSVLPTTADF
# UniProt P31943: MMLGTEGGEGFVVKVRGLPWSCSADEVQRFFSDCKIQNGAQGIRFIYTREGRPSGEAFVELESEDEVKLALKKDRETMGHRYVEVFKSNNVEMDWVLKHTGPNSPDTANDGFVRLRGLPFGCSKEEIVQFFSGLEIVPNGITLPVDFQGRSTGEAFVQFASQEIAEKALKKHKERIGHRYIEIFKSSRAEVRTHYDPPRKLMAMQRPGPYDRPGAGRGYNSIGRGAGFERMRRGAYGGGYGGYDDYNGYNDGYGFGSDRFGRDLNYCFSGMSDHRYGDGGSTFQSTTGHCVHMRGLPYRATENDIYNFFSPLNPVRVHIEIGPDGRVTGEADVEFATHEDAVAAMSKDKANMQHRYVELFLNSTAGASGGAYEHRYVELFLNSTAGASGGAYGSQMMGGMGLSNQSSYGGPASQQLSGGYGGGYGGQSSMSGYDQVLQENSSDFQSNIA
# UniProt P30153, whole entry, looked up: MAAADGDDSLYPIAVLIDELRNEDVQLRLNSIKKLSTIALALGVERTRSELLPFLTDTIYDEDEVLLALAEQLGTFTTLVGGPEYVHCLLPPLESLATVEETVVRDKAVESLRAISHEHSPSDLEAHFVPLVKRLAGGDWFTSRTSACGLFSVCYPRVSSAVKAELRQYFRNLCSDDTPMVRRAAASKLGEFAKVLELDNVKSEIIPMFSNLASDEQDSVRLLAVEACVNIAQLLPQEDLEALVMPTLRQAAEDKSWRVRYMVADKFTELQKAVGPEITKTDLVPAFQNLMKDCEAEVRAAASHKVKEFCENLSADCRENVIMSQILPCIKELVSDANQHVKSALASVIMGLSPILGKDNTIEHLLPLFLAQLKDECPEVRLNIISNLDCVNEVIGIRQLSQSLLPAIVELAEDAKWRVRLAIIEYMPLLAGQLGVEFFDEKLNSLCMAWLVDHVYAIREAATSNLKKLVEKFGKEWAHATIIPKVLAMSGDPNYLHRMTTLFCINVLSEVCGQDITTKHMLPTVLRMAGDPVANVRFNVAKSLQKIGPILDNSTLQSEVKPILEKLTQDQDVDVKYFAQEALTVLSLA
# UniProt P40926: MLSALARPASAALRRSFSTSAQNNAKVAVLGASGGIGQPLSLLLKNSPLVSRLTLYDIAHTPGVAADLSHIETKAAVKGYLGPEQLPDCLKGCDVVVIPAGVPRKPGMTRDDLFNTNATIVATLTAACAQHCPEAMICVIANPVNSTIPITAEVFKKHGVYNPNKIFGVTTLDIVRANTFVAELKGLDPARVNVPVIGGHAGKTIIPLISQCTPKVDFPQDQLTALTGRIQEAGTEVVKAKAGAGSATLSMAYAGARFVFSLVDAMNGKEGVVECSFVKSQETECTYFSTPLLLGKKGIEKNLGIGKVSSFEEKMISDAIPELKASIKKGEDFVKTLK
# UniProt P34932: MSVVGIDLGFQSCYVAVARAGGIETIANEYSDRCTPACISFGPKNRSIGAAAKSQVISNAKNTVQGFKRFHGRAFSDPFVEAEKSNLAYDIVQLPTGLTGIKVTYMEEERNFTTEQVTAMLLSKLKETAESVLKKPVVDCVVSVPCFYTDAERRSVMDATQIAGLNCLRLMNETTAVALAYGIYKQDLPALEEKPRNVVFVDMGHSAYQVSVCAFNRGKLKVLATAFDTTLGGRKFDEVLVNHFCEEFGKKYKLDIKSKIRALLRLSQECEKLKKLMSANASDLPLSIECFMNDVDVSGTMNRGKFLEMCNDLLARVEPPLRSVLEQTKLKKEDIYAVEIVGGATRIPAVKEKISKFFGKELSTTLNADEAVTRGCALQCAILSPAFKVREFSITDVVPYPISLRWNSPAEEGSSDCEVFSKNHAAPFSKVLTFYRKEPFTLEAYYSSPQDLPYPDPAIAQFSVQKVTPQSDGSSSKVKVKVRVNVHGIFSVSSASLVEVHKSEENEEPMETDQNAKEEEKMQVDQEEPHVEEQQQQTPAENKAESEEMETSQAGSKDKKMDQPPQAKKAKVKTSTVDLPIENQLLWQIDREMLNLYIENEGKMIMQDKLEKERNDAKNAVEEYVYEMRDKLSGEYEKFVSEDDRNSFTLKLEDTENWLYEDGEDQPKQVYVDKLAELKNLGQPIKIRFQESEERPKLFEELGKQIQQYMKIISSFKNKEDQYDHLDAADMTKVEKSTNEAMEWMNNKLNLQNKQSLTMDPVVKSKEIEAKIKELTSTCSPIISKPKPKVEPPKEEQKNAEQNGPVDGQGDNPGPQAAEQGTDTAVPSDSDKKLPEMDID
# UniProt P40939: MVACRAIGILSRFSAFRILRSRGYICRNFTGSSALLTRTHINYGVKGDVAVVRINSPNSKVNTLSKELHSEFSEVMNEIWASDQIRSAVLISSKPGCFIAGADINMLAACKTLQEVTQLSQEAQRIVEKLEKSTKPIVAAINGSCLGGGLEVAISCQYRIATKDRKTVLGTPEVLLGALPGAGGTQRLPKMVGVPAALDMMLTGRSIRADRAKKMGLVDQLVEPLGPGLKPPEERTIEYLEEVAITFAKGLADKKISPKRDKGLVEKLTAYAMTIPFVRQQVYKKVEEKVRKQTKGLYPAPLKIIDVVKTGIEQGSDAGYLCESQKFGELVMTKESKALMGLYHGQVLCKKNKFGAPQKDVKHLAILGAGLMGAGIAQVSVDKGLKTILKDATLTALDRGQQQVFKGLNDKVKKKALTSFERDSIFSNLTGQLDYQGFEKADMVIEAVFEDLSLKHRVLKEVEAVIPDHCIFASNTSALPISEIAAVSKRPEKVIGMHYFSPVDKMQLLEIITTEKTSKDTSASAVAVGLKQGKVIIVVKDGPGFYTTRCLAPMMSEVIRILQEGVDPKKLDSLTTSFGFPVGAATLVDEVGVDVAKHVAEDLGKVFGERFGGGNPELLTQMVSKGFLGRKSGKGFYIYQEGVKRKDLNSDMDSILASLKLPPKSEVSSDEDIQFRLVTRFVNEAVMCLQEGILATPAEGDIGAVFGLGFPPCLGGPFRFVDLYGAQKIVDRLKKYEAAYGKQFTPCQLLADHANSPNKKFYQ
# Compound: COC(=O)C#Cc1ccccc1 [methyl 3-phenylpropiolate]
# Experiment: log2 ratio of iodoacetamide-alkyne labeling of the cysteine site, DMSO over compound (competition); higher = stronger covalent engagement of the cysteine by the compound, active = 1 or more
# Conditions: 500 µM; treatment time 1 h; system: HEK293T cell lysate
# In short: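 After 1 h at ambient temperature with vehicle or electrophile (500 µM), HEK293T lysate (2 mg/mL) was labelled for 1 h with iodoacetamide alkyne and clicked to sCIP-TMT reagents. Pooled samples were trypsin-digested overnight at 37 °C, streptavidin-enriched, acid-eluted and analysed by Orbitrap Eclipse LC-MS/MS with FAIMS, then quantified in FragPipe over three replicates with duplicate channels. A cysteine's log2 competition ratio is its mean control-channel over mean compound-channel reporter intensity. Cysteines quantified in only one replicate were not included.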
row,Target,log2 ratio of iodoacetamide-alkyne labeling
1,UniProt P31270_C93,inactive: 0.471
2,TTK C322 (UniProt P33981),active: 1.29
3,UniProt P31260_C200,inactive: 0.823
4,PPP2R1B C306 (UniProt P30154),inactive: 0.0579
5,CCT6A C282 (UniProt P40227),inactive: 0.13
6,IARS C120 (UniProt P41252),inactive: -0.0767
7,HNRNPH1 C290 (UniProt P31943),inactive: -0.0472
8,PPP2R1A C148 (UniProt P30153),inactive: 0.22
9,PPP2R1A C377 (UniProt P30153),inactive: 0.919
10,MDH2 C285 (UniProt P40926),inactive: 0.266
11,HSPA4 C380 (UniProt P34932),inactive: -0.192
12,LRPPRC C927 (UniProt P42704),inactive: -0.123
13,IARS C87 (UniProt P41252),inactive: 0.143
14,HADHA C747 (UniProt P40939),inactive: 0.195
15,POLR2B C224 (UniProt P30876),inactive: 0.127

# Looked up one by one from the entries so far (2):
row,Target,log2 ratio of iodoacetamide-alkyne labeling
11,HSPA4 C380 (UniProt P34932),inactive: -0.192
8,PPP2R1A C148 (UniProt P30153),inactive: 0.22

# Source: the supplement of paper PMC11006884
